The supplement of paper PMC10849652
The other results are listed elsewhere or left out.

Amino acid sequences for entries named in this document (tags omitted). A change or cut given only in a name is not applied to a line headed by its entry.
UniProt Q15691: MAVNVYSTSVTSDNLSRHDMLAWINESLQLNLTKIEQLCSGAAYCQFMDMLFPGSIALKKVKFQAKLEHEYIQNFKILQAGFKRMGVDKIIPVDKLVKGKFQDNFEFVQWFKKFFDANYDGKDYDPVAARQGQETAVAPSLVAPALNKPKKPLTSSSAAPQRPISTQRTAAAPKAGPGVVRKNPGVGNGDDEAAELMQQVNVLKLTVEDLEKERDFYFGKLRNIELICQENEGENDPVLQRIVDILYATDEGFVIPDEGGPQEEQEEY
UniProt Q9BQ69: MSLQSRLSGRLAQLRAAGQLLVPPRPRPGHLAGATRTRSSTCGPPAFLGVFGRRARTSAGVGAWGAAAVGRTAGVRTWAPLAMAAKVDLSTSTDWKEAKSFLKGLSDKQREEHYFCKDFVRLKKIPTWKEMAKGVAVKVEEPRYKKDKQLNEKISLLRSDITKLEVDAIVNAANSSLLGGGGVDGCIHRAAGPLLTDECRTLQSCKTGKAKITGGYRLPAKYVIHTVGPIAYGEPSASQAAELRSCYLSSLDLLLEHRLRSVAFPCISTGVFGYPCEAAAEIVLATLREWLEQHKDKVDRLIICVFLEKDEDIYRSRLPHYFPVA
UniProt Q3KQU3: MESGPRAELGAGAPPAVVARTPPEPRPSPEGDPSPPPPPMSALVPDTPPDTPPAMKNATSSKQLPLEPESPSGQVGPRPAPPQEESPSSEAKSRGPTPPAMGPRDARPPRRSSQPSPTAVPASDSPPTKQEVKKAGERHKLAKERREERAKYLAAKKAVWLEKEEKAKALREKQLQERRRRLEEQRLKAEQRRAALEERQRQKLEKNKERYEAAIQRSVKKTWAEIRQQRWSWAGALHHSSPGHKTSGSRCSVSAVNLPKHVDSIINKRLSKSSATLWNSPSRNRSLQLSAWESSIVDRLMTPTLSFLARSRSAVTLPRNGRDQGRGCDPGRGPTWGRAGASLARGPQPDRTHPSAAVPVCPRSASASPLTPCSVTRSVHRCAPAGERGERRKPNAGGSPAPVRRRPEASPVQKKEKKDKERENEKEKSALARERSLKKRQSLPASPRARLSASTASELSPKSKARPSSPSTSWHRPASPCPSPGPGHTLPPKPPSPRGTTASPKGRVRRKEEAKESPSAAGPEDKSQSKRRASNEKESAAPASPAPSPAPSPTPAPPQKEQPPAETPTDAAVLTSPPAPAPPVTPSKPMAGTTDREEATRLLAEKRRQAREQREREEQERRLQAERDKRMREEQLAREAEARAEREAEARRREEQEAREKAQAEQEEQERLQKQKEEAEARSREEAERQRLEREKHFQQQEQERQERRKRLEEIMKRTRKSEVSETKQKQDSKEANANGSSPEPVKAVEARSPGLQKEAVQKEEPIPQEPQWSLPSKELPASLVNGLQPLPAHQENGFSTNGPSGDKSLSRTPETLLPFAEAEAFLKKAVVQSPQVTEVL
UniProt Q96A72, whole entry, looked up: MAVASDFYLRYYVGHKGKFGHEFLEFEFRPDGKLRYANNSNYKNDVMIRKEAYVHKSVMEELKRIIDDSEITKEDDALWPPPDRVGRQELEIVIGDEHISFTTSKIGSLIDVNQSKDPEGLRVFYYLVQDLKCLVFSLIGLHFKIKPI
UniProt Q8IZL2, whole entry, looked up: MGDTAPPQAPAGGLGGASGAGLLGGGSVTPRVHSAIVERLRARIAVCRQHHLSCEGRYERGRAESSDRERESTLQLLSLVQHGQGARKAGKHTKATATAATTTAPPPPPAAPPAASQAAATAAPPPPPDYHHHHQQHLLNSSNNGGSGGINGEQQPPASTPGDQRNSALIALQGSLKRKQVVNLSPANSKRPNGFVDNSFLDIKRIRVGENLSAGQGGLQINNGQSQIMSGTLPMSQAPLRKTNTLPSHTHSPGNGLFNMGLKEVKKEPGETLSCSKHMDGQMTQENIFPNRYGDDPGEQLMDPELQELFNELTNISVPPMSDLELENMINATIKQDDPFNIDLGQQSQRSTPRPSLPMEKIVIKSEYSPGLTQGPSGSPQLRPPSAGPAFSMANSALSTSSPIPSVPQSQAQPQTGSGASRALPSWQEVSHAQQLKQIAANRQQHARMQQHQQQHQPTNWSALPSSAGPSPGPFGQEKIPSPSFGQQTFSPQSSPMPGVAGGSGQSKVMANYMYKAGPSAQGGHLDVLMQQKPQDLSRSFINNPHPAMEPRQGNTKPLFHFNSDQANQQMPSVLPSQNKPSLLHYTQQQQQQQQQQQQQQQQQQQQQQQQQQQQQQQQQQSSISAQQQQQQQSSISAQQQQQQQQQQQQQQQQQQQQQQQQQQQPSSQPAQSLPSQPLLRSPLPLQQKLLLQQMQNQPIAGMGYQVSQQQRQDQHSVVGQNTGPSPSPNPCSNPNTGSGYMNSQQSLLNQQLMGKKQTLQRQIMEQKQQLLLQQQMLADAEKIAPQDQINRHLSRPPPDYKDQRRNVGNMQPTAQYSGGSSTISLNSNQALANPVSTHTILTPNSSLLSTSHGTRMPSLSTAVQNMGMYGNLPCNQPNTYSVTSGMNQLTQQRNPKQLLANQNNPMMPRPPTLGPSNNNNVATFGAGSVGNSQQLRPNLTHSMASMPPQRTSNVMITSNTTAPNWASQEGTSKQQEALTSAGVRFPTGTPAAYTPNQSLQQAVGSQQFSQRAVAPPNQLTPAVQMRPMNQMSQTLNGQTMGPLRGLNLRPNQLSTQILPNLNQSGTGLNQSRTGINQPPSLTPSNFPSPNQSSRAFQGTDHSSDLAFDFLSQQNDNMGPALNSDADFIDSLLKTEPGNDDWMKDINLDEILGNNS
UniProt Q9UI95, whole entry, looked up: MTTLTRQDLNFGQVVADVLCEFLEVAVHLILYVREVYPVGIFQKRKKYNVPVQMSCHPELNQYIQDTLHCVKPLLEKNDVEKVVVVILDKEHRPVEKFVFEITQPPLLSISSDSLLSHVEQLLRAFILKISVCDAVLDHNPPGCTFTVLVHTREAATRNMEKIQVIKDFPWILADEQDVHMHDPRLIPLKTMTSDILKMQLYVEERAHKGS
UniProt Q9UBF1: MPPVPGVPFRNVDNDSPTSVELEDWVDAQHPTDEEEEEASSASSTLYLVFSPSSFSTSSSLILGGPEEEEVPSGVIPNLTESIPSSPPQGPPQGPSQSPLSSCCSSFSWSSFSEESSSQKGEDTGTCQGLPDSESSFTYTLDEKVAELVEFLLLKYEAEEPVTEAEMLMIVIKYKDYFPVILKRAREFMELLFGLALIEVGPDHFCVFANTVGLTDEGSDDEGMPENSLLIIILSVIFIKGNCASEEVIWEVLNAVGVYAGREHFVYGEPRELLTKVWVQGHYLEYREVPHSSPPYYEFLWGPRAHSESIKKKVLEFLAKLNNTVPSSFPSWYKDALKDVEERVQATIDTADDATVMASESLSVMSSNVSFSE
UniProt P49137, whole entry, looked up: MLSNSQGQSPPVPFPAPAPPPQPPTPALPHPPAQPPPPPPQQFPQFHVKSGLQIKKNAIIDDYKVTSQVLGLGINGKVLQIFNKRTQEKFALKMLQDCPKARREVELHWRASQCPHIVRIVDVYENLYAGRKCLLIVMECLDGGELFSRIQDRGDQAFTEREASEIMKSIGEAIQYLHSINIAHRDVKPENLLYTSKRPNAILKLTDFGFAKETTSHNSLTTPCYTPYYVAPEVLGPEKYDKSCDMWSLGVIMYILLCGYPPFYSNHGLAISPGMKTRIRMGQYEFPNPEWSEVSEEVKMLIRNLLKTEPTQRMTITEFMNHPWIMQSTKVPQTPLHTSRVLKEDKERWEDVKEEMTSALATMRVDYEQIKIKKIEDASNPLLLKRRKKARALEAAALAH
UniProt Q16539, whole entry, looked up: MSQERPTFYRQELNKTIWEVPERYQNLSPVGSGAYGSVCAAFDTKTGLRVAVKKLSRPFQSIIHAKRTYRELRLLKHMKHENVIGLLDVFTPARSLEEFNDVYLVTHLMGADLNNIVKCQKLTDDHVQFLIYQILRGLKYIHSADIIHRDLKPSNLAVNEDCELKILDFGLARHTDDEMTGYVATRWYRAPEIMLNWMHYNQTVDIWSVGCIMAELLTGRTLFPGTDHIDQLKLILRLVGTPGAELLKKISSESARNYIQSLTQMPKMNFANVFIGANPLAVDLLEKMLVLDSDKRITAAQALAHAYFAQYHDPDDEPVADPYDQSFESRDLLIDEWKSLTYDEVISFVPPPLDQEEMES
UniProt Q5VWZ2: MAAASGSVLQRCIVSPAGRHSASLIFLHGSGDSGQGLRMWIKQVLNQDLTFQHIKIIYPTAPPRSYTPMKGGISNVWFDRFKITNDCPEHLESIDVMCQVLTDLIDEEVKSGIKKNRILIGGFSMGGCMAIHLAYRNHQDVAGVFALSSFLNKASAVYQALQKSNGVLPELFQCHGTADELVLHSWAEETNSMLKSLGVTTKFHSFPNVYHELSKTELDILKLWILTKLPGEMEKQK
UniProt Q9HD34: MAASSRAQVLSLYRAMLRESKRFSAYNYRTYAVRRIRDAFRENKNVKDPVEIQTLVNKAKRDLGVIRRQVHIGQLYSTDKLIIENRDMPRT
UniProt Q6ZN28: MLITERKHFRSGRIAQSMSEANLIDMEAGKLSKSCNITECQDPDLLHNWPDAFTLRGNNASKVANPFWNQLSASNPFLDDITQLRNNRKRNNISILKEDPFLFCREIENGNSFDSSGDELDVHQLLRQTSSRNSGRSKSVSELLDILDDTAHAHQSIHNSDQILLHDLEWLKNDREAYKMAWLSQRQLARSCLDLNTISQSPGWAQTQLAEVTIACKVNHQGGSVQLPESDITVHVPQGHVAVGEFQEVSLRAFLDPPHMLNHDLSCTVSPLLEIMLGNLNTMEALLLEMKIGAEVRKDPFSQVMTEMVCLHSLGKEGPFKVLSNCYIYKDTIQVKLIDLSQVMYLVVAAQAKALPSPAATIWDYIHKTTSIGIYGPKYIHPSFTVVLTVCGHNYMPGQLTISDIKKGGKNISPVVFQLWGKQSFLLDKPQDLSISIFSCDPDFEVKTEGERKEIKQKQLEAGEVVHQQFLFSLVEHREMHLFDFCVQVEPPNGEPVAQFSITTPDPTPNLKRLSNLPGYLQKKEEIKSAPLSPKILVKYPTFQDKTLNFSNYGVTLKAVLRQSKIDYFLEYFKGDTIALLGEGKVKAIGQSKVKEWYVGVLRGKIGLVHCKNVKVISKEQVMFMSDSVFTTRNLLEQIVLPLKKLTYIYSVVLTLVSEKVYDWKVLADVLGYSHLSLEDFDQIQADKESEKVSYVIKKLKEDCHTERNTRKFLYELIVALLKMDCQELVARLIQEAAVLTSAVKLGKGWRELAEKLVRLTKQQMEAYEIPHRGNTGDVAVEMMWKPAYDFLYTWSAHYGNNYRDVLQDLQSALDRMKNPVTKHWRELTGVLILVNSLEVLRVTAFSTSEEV
UniProt O00754: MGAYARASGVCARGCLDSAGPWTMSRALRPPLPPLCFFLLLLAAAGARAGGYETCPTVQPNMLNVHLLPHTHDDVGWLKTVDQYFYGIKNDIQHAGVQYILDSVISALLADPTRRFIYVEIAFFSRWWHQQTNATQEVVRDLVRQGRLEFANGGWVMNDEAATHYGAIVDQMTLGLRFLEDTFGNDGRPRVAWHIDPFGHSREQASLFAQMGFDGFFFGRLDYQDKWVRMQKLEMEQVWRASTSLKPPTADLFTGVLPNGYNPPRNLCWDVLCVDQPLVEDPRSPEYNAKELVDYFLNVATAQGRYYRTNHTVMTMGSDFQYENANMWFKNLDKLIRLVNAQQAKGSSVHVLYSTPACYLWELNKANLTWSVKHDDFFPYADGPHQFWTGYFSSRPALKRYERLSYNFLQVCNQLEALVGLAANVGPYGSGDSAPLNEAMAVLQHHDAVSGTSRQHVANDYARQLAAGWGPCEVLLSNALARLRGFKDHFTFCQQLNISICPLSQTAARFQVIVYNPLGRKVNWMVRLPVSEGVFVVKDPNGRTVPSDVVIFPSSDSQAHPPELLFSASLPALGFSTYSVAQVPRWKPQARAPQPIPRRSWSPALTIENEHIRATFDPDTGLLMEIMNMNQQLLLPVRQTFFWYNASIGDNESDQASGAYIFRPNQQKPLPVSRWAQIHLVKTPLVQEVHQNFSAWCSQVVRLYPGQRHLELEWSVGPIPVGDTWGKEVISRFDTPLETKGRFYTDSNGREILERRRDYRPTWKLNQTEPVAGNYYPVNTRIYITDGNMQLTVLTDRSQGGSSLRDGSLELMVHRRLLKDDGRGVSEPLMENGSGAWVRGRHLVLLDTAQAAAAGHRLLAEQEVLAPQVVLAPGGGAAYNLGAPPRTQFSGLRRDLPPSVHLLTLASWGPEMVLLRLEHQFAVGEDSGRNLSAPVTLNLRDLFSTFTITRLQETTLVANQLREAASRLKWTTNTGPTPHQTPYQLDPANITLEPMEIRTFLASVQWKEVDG

Tests used:
Test in all cases: log2 fold change, soluble protein after heating vs DMSO (PISA); higher = thermal stabilisation; K562 lysate, 10 uM; active = over 0.2 and 3.5 SD of the protein, either way, in both replicates (recomputed)
ibrutinib = compound: C=CC(=O)N1CCC[C@@H](n2nc(-c3ccc(Oc4ccccc4)cc3)c3c(N)ncnc32)C1 [ibrutinib]
In short: (§1)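 A 30 min treatment with 10 μM compound was applied to crude K562 extract at 1 mg/mL protein in PBS pH 7.4 with 1 mM MgCl2. Heating for 3 min spanned 48°C-58°C, after which aliquots were pooled, adjusted to 0.5% NP-40 at 4°C and spun at 21,000xg for 90 min. TMTpro 16plex LC-MS/MS of the supernatant, with channel sums equalised, gave values recorded as log-two fold change in thermal stability against solvent controls, from duplicates.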

[1] = compound: CC(=O)c1cnc2ccc(-c3cc(Cl)c(O)c(Cl)c3)nc2c1N[C@H]1CC[C@H](CN(C)C)CC1
In short: as §1

ralimetinib = compound: CC(C)(C)Cn1c(N)nc2ccc(-c3[nH]c(C(C)(C)C)nc3-c3ccc(F)cc3)nc21 [ralimetinib]
In short: as §1

[2] = compound: CC(C)(O)CC(=O)NCCn1ccc2ncnc(Nc3ccc(Oc4cccc(C(F)(F)F)c4)c(Cl)c3)c21
In short: as §1

[3] = compound: CC(C)C1=C2N=C(C=C(N2N=C1)NCC3=CC=CC=C3)NCCCCCCN
In short: as §1

[4] = compound: CC1=C(C(CC(=O)N1)C2=CC=C(C=C2)C(F)(F)F)C(=O)NC3=C(C=C4C(=C3)C=NN4)F
In short: as §1

[5] = compound: CC1=C(C2=C(C=C1)C(=O)C3=CC=CC=C3N2CCCN)C
In short: as §1

[6] = compound: CC1=C(C=C(C=C1)NC(=O)C2=CC(=CC=C2)C(C)(C)C#N)NC3=CC4=C(C=C3)N=CN(C4=O)C
In short: as §1

[7] = compound: CC1=C(C=C(C=C1)NC(=O)C2=CC(=CC=C2)N(C)C)NC(=O)C3=CC=C(C=C3)O
In short: as §1

[8] = compound: CC1=CC=C(C=C1)SC2=C3C=C(SC3=CN=C2)C(=O)N
In short: as §1

vemurafenib = compound: CCCS(=O)(=O)Nc1ccc(F)c(C(=O)c2c[nH]c3ncc(-c4ccc(Cl)cc4)cc23)c1F [vemurafenib]
In short: as §1

[9] = compound: CCCS(=O)(=O)Nc1ccc(F)c(C(=O)c2c[nH]c3ncc(Cl)cc23)c1F
In short: as §1

barasertib = compound: CCN(CCCOc1ccc2c(Nc3cc(CC(=O)Nc4cccc(F)c4)[nH]n3)ncnc2c1)CCOP(=O)(O)O [barasertib]
In short: as §1

[10] = compound: CC[C@@H]1C(=O)N(C)c2cnc(Nc3ccc(C(=O)NC4CCN(C)CC4)cc3OC)nc2N1C1CCCC1
In short: as §1

volasertib = compound: CC[C@@H]1C(=O)N(C)c2cnc(Nc3ccc(C(=O)N[C@H]4CC[C@H](N5CCN(CC6CC6)CC5)CC4)cc3OC)nc2N1C(C)C [volasertib]
In short: as §1

[11] = compound: CCn1c(C(=O)N(C2CC2)C2CC2)cc2c3c(ncn3C)c(Nc3cc(C)n(C)n3)nc21
In short: as §1

[12] = compound: CCn1cc(-c2ccnc3[nH]c(-c4cccc(CN(C)C)c4)cc23)c(-c2ccc(NC(=O)N(C)C)cc2)n1
In short: as §1

[13] = compound: CN1CCC(CNc2ccc3ncc(-c4cccc(OC(F)(F)F)c4)n3n2)CC1
In short: as §1

saracatinib = compound: CN1CCN(CCOc2cc(OC3CCOCC3)c3c(Nc4c(Cl)ccc5c4OCO5)ncnc3c2)CC1 [saracatinib]
In short: as §1

sotrastaurin = compound: CN1CCN(c2nc(C3=C(c4c[nH]c5ccccc45)C(=O)NC3=O)c3ccccc3n2)CC1 [sotrastaurin]
In short: as §1

Row | Target | log2 fold change (ibrutinib) | log2 fold change [1] | log2 fold change (ralimetinib) | log2 fold change [2] | log2 fold change [3] | log2 fold change [4] | log2 fold change [5] | log2 fold change [6] | log2 fold change [7] | log2 fold change [8] | log2 fold change (vemurafenib) | log2 fold change [9] | log2 fold change (barasertib) | log2 fold change [10] | log2 fold change (volasertib) | log2 fold change [11] | log2 fold change [12] | log2 fold change [13] | log2 fold change (saracatinib) | log2 fold change (sotrastaurin)
1 | MAPRE2 (UniProt Q15555) | inactive: 0.004 | inactive: -0.006 | inactive: 0.023 | inactive: 0.01 | inactive: 0.113 | inactive: 0.02 | inactive: -0.007 | inactive: -0.002 | inactive: 0.028 | inactive: -0.008 | inactive: -0.01 | inactive: 0.037 | inactive: -0.052 | inactive: -0.078 | inactive: -0.048 | inactive: 0.007 | inactive: 0.254 | inactive: -0.024 | inactive: 0.053 | inactive: 0.017
2 | MAPRE1 (UniProt Q15691) | inactive: -0.004 | inactive: 0.022 | inactive: -0.043 | inactive: 0.038 | inactive: 0.001 | inactive: -0.006 | inactive: 0.02 | inactive: -0.008 | inactive: -0.003 | inactive: 0.034 | inactive: 0.006 | inactive: -0.04 | inactive: -0.01 | inactive: 0.033 | inactive: -0.001 | inactive: 0.026 | inactive: 0.095 | inactive: -0.026 | inactive: 0.006 | inactive: -0.005
3 | MACROD1 (UniProt Q9BQ69) | inactive: 0 | inactive: 0.015 | inactive: 0.098 | inactive: -0.024 | inactive: -0.008 | inactive: 0.022 | inactive: 0.017 | inactive: -0.101 | inactive: 0.064 | inactive: 0.065 | inactive: 0.016 | inactive: 0.043 | inactive: -0.002 | inactive: 0.033 | inactive: -0.015 | inactive: -0.012 | inactive: -0.043 | inactive: -0.014 | inactive: 0.008 | inactive: 0.002
4 | MAP7D1 (UniProt Q3KQU3) | inactive: 0.035 | inactive: 0.01 | inactive: -0.022 | inactive: 0.027 | inactive: -0.001 | inactive: -0.037 | inactive: -0.06 | inactive: 0.017 | inactive: 0.012 | inactive: -0.009 | inactive: 0.09 | inactive: 0.036 | inactive: 0.007 | inactive: 0.107 | inactive: -0.019 | inactive: -0.007 | inactive: 0.025 | inactive: -0.05 | inactive: 0.072 | inactive: 0.03
5 | MAGOHB (UniProt Q96A72) | inactive: 0.027 | inactive: 0 | inactive: 0.011 | inactive: 0.001 | inactive: 0.001 | inactive: -0.004 | inactive: 0.008 | inactive: -0.005 | inactive: 0.006 | inactive: 0.005 | inactive: 0.018 | inactive: 0.002 | inactive: 0.023 | inactive: -0.034 | inactive: 0.003 | inactive: -0.009 | inactive: -0.199 | inactive: 0.025 | inactive: -0.038 | inactive: -0.017
6 | MAML2 (UniProt Q8IZL2) | inactive: 0.12 | inactive: -0.286 | inactive: -0.049 | inactive: -0.051 | inactive: -0.08 | inactive: -0.021 | inactive: 0.118 | inactive: 0.001 | inactive: 0.047 | inactive: -0.115 | inactive: 0.016 | inactive: 0.111 | inactive: 0.099 | inactive: 0.19 | inactive: 0.119 | inactive: 0.029 | inactive: 0.042 | inactive: -0.029 | inactive: -0.211 | inactive: -0.043
7 | MAD2L2 (UniProt Q9UI95) | inactive: -0.015 | inactive: -0.173 | inactive: 0.103 | inactive: -0.08 | inactive: -0.03 | inactive: -0.001 | inactive: -0.059 | inactive: 0.053 | inactive: -0.106 | inactive: -0.132 | inactive: -0.028 | inactive: 0.246 | inactive: 0.013 | inactive: -0.065 | inactive: 0.044 | inactive: 0.089 | inactive: -0.036 | inactive: -0.051 | inactive: 0.079 | inactive: -0.006
8 | MAGEC2 (UniProt Q9UBF1) | inactive: -0.021 | inactive: 0.005 | inactive: 0.045 | inactive: -0.042 | inactive: 0.027 | inactive: -0.005 | inactive: -0.012 | inactive: 0.083 | inactive: -0.001 | inactive: 0.033 | inactive: 0.012 | inactive: -0.01 | inactive: -0.004 | inactive: -0.051 | inactive: -0.005 | inactive: -0.025 | inactive: -0.178 | inactive: 0.032 | inactive: 0.01 | inactive: 0.029
9 | MAPK9 (UniProt P45984) | inactive: -0.024 | active: 0.234 | active: 0.366 | inactive: 0.002 | inactive: -0.029 | inactive: -0.038 | inactive: -0.086 | inactive: 0.103 | inactive: -0.029 | inactive: -0.015 | inactive: -0.016 | inactive: -0.002 | inactive: -0.025 | inactive: -0.063 | inactive: 0.006 | inactive: -0.007 | inactive: 0.084 | inactive: -0.15 | inactive: 0.002 | inactive: -0.031
10 | MAP2K2 (UniProt P36507) | inactive: 0.239 | active: 0.443 | inactive: -0.052 | inactive: 0.173 | inactive: -0.007 | inactive: -0.009 | inactive: -0.033 | inactive: -0.017 | inactive: 0.013 | inactive: -0.014 | inactive: 0.224 | inactive: 0.184 | inactive: 0.026 | inactive: -0.076 | inactive: -0.089 | inactive: 0.008 | inactive: 0.252 | inactive: -0.047 | inactive: 0.093 | inactive: -0.002
11 | MAPKAPK2 (UniProt P49137) | inactive: 0.05 | active: 0.385 | inactive: -0.011 | inactive: 0.016 | inactive: -0.046 | inactive: 0.003 | inactive: 0.002 | inactive: -0.056 | inactive: 0.026 | inactive: 0 | inactive: 0.011 | inactive: -0.043 | inactive: 0 | inactive: -0.015 | inactive: -0.032 | inactive: 0.009 | inactive: -0.032 | inactive: 0.002 | inactive: -0.037 | inactive: -0.015
12 | MAPK14 isoform 2 (UniProt Q16539) | inactive: 0.03 | inactive: 0.249 | active: 0.97 | inactive: -0.047 | inactive: -0.003 | inactive: 0.02 | inactive: -0.027 | active: 0.973 | inactive: 0.419 | inactive: 0.011 | inactive: 0.189 | inactive: 0.046 | inactive: 0.079 | inactive: -0.076 | inactive: -0.078 | inactive: 0.003 | inactive: 0.303 | inactive: -0.101 | inactive: 0.192 | inactive: -0.029
13 | LYPLAL1 (UniProt Q5VWZ2) | inactive: 0.009 | inactive: -0.007 | inactive: -0.017 | inactive: -0.063 | inactive: 0 | inactive: -0.02 | inactive: -0.008 | inactive: 0.012 | inactive: -0.012 | inactive: -0.016 | inactive: -0.009 | inactive: 0.01 | inactive: 0.068 | inactive: 0.022 | inactive: 0.02 | inactive: -0.002 | inactive: -0.039 | inactive: 0.031 | inactive: -0.019 | inactive: -0.032
14 | LYRM4 (UniProt Q9HD34) | inactive: 0.015 | inactive: 0.034 | inactive: -0.036 | inactive: -0.042 | inactive: 0.017 | inactive: 0.017 | inactive: -0.027 | inactive: 0.109 | inactive: -0.034 | inactive: -0.009 | inactive: 0.026 | inactive: 0.015 | inactive: -0.04 | inactive: -0.051 | inactive: 0.021 | inactive: 0.03 | active: 0.715 | inactive: -0.035 | inactive: 0.007 | inactive: -0.05
15 | MACC1 (UniProt Q6ZN28) | inactive: 0.025 | inactive: -0.062 | inactive: 0.05 | inactive: -0.072 | inactive: -0.037 | inactive: 0.027 | inactive: -0.041 | inactive: 0.093 | inactive: 0.042 | inactive: -0.007 | inactive: -0.015 | inactive: 0.066 | inactive: 0 | inactive: -0.036 | inactive: 0.004 | inactive: -0.016 | inactive: -0.016 | inactive: 0.006 | inactive: -0.03 | inactive: 0.023
16 | MAN2B1 (UniProt O00754) | inactive: -0.02 | inactive: 0.007 | inactive: -0.041 | inactive: -0.006 | inactive: -0.023 | inactive: -0.026 | inactive: -0.008 | inactive: -0.132 | inactive: -0.017 | inactive: 0.018 | inactive: 0.016 | inactive: 0.024 | inactive: -0.041 | inactive: 0.051 | inactive: 0.038 | inactive: 0.009 | inactive: 0.047 | inactive: 0.011 | inactive: -0.008 | inactive: 0.08

Single entries from the list:
MAPRE1 (UniProt Q15691) – log2 fold change [6]: inactive: -0.008
LYRM4 (UniProt Q9HD34) – log2 fold change [9]: inactive: 0.015
